In the supplement of paper PMC12823440, “Inhibitors supercharge kinase turnover through native proteolytic circuits” (Nature, 2025):
Structures can show the parent of a compound that is named as a salt. This is one part of the list. Hit calls seldom repeat between salt and free forms of one compound.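 Kinases were expressed as nanoluciferase fusions in K562 cells and luminescence was read every 4 h between 2 and 18 h as percent of control, DMSO set to 100% and a positive control to 0%. A time point counts as decreased when the signal drops significantly (2 sigma). The hit call is the authors' own, does not follow from the count of time points alone, and its rule is not shown.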

Chains of the proteins cited; added tags and fusions are not shown.
UniProt P31152, whole entry: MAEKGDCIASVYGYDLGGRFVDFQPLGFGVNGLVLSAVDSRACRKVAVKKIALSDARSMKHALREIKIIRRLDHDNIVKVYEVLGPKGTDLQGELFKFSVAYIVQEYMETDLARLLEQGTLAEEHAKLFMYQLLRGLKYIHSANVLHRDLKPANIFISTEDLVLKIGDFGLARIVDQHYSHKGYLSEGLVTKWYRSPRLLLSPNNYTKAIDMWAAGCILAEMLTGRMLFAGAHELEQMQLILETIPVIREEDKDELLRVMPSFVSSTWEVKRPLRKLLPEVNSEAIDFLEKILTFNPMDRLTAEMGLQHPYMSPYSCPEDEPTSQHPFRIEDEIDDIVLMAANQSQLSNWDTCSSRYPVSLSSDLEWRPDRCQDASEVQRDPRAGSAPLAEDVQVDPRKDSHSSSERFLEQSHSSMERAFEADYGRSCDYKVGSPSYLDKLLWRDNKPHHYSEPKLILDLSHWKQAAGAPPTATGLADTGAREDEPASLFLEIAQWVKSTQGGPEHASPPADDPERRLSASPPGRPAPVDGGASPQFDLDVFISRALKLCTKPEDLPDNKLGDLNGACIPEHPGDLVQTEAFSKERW

Biological target: MAPK4 (UniProt P31152)
Test: kinase-Nluc reporter destabilization hit call (1 = scored as downregulated) (binary); higher = compound decreases kinase abundance
Conditions: K562; 2-18 h

kinase-Nluc reporter destabilization hit call, inactive:
CC(C1CC1)n1cnc2c(NCc3cccc(C(F)(F)F)c3)nc(NCCN(C)C)nc21 (stereo not drawn) (10 µM) 0
COc1cc2nc(NC3CC3)nc(NC3CCN(C(C)C)CC3)c2cc1OC (10 µM) 0
Cc1nn(CC(F)(F)F)cc1Nc1ncc(Br)c(NCc2ccc(S(N)(=O)=O)cc2)n1 (10 µM) 0
N#C/C(=C/c1ccc(O)c(O)c1)C(=O)N1CCc2ccccc21 [Tyrphostin AG 528] (10 µM) 0
Cc1nc2c(NCc3cccc(S(C)(=O)=O)c3)nccn2c1-c1ccc(O)c(F)c1 (10 µM) 0
CN(C)c1cc[n+](Cc2ccc(OCCOc3ccc(C[n+]4ccc(N(C)C)cc4)cc3)cc2)cc1 (10 µM) 0
O=C1CCC(N2C(=O)c3cccc(OCCCCCOc4ccc(CC(=O)Nc5cc(C6CCC6)[nH]n5)cc4)c3C2=O)C(=O)N1 (stereo not drawn) [PROTAC CDK9 Degrader-1] (10 µM) 0
CCOc1cc(=O)[nH]cc1-c1ccc(CC(=O)Nc2cc(C(C)(C)C(F)(F)F)on2)c(F)c1 (10 µM) 0
O=C(O)/C=C(\CCc1ccc(Cl)cc1)c1ccccc1 (10 µM) 0
CCc1c(C(=O)NNC(=O)[C@H](O)c2cc(F)cc(F)c2)ccc(O)c1C (10 µM) 0
O=c1cc(N2CCOCC2)oc2c(-c3cccc4c3sc3ccccc34)cccc12 (10 µM) 0
CN1CCN(c2ccc(-n3cc(-c4ccncc4OCC4CCNCC4)cn3)cc2)CC1 [MELK-8a (hydrochloride)] (10 µM) 0
Cc1ccc(C2CC(=O)NC(SCC(=O)Nc3nccs3)=C2C#N)cc1 (stereo not drawn) [Necrostatin-34] (10 µM) 0
CNc1cc2c(Nc3cccc(Br)c3)ncnc2cn1 (10 µM) 0
Cn1cc(-c2nc(N[C@@H]3CCCC[C@@H]3N)c(F)c3c2C(=O)NC3)cn1 [TAK-659 (hydrochloride)] (2 µM) 0
CC(=O)Nc1nc(C)c(-c2cc(C)c3c(c2)CN([C@@H](C)C2CC2)C3=O)s1 (10 µM) 0
CN(C)c1ccc(/C=C2\C(=O)Nc3ccccc32)c2ccccc12 (10 µM) 0
COc1ccc(-c2cc(=O)c3c(O)cc(O)cc3o2)cc1-c1c(O)cc(O)c2c(=O)cc(-c3ccc(O)cc3)oc12 [Bilobetin] (2.5 µM) 0
O=C(NCc1ccn[nH]1)c1cc([C@@H]2CCNC[C@H]2COc2ccc3c(c2)OCO3)ccc1F [GRK2-IN-1 (hydrochloride)] (10 µM) 0
Nc1ccc(C(=O)Nc2cccc(-c3nc(N4CCOCC4)c4oc5ncccc5c4n3)c2)cn1 (10 µM) 0
CCOC(=O)c1c(C)[nH]c(C=C2C(=O)Nc3ccccc32)c1C (10 µM) 0
CCCS(=O)(=O)N[C@H]1C[C@@H](N(C)c2ncnc3[nH]ccc23)C1 [Abrocitinib] (10 µM) 0
O=[N+]([O-])c1ccc(-c2nc(-c3ccc(F)cc3)c(-c3ccncc3)[nH]2)cc1 (10 µM) 0
O=C(O)c1c[nH]c2cc(Cl)c(-c3ccc(C4(O)CCC4)cc3)cc12 (10 µM) 0
CN1CCC(Nc2nc(Nc3ccc(Oc4ccccc4)cc3)c3c(=O)[nH]cc(Br)c3n2)CC1 (2.5 µM) 0
CO[C@]1(C(=O)N[C@@H](C)c2ccc(-n3cc(F)cn3)nc2)CC[C@H](c2nc(C)cc(Nc3cc(C)[nH]n3)n2)CC1 [Pralsetinib] (10 µM) 0
COc1c(Nc2ncc(Cl)c(N[C@H]3[C@@H](C(N)=O)[C@@H]4C=C[C@H]3C4)n2)ccc2c1CC[C@@H](N1CCOCC1)CC2 (10 µM) 0
CN1CCN(Cc2ccc(-c3cn(C4CCC(O)CC4)c4nc(NCCC5CC5)ncc34)cc2)CC1 (stereo not drawn) (2.5 µM) 0
C[C@@H]1COC(Nc2ccc3ncnc(Nc4ccc(OCc5nccs5)c(Cl)c4)c3c2)=N1 [Varlitinib] (10 µM) 0
CC(C)n1cnc2c(Nc3cccc(Cl)c3)nc(N[C@H]3CCCC[C@@H]3N)nc21 (2.5 µM) 0
Cc1n[nH]c2ncc(C(=O)N3CCC[C@H]3c3ccc(Cl)cc3)cc12 (10 µM) 0
COc1ccc2cc1Oc1ccc(cc1)C[C@H]1c3cc(c(OC)cc3CCN1C)Oc1c(O)c(OC)cc3c1[C@H](C2)N(C)CC3 [Fangchinoline] (2.5 µM) 0
CS[C@@]1(C(=O)Nc2ccc3[nH]nc(-c4ccc(OC(C)C)nc4)c3c2)CCN(CC(=O)N2CC=C(c3ccc(-c4ncn(C)n4)cc3)CC2)C1 (2.5 µM) 0
CC/C(=C(\c1ccccc1)c1ccc(OCCNC)cc1)c1ccccc1 [N-Desmethyltamoxifen (hydrochloride)] (2.5 µM) 0
CNC(=O)CN1CCC(Oc2cc3c(Nc4cccc(Cl)c4F)ncnc3cc2OC)CC1 [Sapitinib] (10 µM) 0
O=CN1CCN(c2ccc(C=C3C(=O)Nc4ccccc43)cc2)CC1 (10 µM) 0
CCCCC(=O)OCC(=O)[C@]1(O)Cc2c(O)c3c(c(O)c2[C@@H](O[C@H]2C[C@H](NC(=O)C(F)(F)F)[C@H](O)[C@H](C)O2)C1)C(=O)c1c(OC)cccc1C3=O [Valrubicin] (10 µM) 0
Fc1ccc(Cl)cc1-c1nc(Nc2ccncc2)c2nccnc2n1 (10 µM) 0

Of the compounds above, 4 contain a CF3 group.
kinase-Nluc reporter destabilization hit call, inactive:
CC(C1CC1)n1cnc2c(NCc3cccc(C(F)(F)F)c3)nc(NCCN(C)C)nc21 (stereo not drawn) (10 µM) 0
Cc1nn(CC(F)(F)F)cc1Nc1ncc(Br)c(NCc2ccc(S(N)(=O)=O)cc2)n1 (10 µM) 0
CCOc1cc(=O)[nH]cc1-c1ccc(CC(=O)Nc2cc(C(C)(C)C(F)(F)F)on2)c(F)c1 (10 µM) 0
CCCCC(=O)OCC(=O)[C@]1(O)Cc2c(O)c3c(c(O)c2[C@@H](O[C@H]2C[C@H](NC(=O)C(F)(F)F)[C@H](O)[C@H](C)O2)C1)C(=O)c1c(OC)cccc1C3=O [Valrubicin] (10 µM) 0
